Laboratory results from patent publication US20160311870A1 (SWEDISH ORPHAN BIOVITRUM AB PUBL, published 2016).
Results are given in words; binding and its absence hold for the method and conditions named. Some results given as binding are weak or reduced against the parent protein; the word gives no strength. Blank lines part the entries; values can stand above or below the binder they belong to.

Sequences of proteins named here, by UniProt entry; tags and fusion partners are left off. A change or cut given only in a name is not applied to a line headed by its entry.
UniProt P55899: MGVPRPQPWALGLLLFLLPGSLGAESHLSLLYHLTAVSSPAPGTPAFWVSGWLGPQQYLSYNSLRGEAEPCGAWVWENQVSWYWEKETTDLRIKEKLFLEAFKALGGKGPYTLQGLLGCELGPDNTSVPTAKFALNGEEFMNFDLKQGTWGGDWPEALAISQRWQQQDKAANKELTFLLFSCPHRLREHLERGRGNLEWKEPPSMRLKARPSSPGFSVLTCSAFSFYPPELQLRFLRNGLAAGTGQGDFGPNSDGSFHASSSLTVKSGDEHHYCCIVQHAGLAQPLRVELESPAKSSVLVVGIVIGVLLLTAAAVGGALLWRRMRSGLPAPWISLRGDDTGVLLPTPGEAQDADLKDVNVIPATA

What was measured:
Experiment in all cases: method not given
[1] = molecular target: human epidermal growth factor receptor 2 (HER2) (human) (UniProt P04626)
[2] = molecular target: platelet-derived growth factor receptor beta (PDGF-Rβ) (Homo sapiens (Human)) (UniProt P09619)
[3] = molecular target: neonatal Fc receptor (FcRn) (Homo sapiens (Human)) (UniProt P55899)

binding [1]: binds
B1: Z17342 (designed binder)
chain: MGSSHHHHHHLQAEAKYAKEMRNAYWEIALLPNLTNQQKRAFIRKLYRQPEQSSELLSEAKKLSESQAPK

binding [2]: binds
B2: Z17344 (designed binder)
chain: MGSSHHHHHHLQAEAKYAKELIEAAAEIDALPNLTRRQWNAFIKKLVRQPEQSSELLSEAKKLSESQAPK

binding [3]: binds
B3: Z17348 (designed binder)
chain: MGSSHHHHHHLQAEAKYAKEQDAAAHEIRWLPNLTFDQRVAFIHKLARQPEQSSELLSEAKKLSESQAPK
